Measured values published in patent publication US20230279127A1.
Changes are numbered by the printed parent chain. No constants are given. Whether binding was seen depends on the method and setting. Some binding calls cover weakened binding; strength is not graded here.

Protein sequences, listed by entry. Tags and fused reporters are not part of them. Lines headed by an entry give the natural chain unless they say otherwise; changes in a name come on top.
UniProt P97378: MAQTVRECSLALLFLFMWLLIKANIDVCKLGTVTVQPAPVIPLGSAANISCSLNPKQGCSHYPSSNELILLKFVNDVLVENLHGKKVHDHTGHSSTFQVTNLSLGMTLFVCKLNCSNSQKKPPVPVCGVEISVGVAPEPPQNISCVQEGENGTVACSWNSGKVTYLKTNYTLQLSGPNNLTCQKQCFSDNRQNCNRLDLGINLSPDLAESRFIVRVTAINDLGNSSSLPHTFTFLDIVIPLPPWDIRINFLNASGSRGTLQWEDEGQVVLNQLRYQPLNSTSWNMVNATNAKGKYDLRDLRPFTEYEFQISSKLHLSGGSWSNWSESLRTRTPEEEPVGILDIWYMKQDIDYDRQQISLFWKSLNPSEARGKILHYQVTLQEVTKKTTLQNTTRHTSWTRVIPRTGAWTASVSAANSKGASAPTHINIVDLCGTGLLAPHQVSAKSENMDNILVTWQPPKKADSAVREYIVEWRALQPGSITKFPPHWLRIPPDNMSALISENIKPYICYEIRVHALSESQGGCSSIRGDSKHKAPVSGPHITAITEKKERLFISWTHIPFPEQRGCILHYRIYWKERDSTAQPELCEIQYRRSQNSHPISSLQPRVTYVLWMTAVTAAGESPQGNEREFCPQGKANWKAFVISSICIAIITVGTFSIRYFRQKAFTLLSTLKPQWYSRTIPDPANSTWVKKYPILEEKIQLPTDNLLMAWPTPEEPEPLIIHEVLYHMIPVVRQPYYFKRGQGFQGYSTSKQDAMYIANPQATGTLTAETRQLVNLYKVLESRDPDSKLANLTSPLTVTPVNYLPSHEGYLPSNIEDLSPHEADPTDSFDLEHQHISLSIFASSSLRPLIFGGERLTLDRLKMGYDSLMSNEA

T1: mouse IL12 receptor subunit beta-1 (mIL12Rb1) (mouse) (UniProt Q60837)
T1 sequence: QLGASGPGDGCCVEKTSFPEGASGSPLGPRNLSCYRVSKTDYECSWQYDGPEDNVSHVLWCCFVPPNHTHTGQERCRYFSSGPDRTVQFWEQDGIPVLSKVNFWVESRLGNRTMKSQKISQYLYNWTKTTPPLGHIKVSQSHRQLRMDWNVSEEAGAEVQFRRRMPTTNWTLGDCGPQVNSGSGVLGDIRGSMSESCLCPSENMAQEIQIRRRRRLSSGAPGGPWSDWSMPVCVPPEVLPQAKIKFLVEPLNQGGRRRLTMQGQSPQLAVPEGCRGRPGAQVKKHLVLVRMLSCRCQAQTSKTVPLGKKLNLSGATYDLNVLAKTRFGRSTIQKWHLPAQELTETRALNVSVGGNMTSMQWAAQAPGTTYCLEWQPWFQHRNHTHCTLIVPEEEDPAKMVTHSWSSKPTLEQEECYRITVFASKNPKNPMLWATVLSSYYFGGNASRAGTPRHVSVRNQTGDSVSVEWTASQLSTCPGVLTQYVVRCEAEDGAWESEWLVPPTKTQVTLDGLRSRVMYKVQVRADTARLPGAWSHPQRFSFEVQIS

B1: DR284 (mIL12Rb1_VHH2) (VHH)
VHH: QVQLQESGGGSVQAGGSLRLSCAVSGYDYCGYDVRWYRQAPGKEREFVSGIDSDGSTSYADSVKGRFTISQDNAENTSYLHMFSLKPEDTAMYYCKTESPAGESAWCRNFRGMDYWGKGTQVTVSS
B2: DR289 (mIL12Rb1_VHH7) (VHH)
VHH: B1 VHH with Q39R
B3: DR283 (mIL12Rb1_VHH1) (VHH)
VHH: QVQLQESGGGSVQAGGSLRLSCTASGYTYSSAFMAWFRQAPGKEREGVAAIYTRDGGTVYADSVKGRFTISQDNAKNTLYLQMNSLKAEDTAMYYCAAKIPQPGRASLLDSQTYDYWGQGTQVTVSS
B4: DR288 (mIL12Rb1_VHH6) (VHH)
VHH: B3 VHH with G57S, T58P, V64L, Y80H, A88P, Q102E, A106I, Q119H
B5: DR287 (mIL12Rb1_VHH5) (VHH)
VHH: QVQLQESGGGSVQAGETLRLSCTVSGFTIDDSEMGWYRQAPGHECELVASGSSDDDTYYVDSVKGRFTISLDNAKNMVYLQMNSLKPEDTAVYYCATGPTYPPKDGDCAHWGQGTQVTVSS
B6: DR286 (mIL12Rb1_VHH4) (VHH)
VHH: QVQLQESGGGSVQAGGSLRLSCAASRYTYTNNFMAWFRQAPGKEREGVAAIYTGDGYAYYFDSVKGRFTISQDNDKNMLYLQMNSLKPEDTAMYYCAAMERRSGRRRMTENAEYKYWGQGTQVTVSS
B7: DR285 (mIL12Rb1_VHH3) (VHH)
VHH: QVQLQESGGGSVQAGGSLRLSCVASGYSYCGYDMMWYRQAPGKEREFVALITSDYSIRYEDSVEGRFSISRDNAKNTGYLLMSNLTPADTAIYYCKTSTAARESSWCRSRYRVASWGQGTQVTVSS
B8: DR306 (mIL12Rb2_VHH4) (VHH)
VHH: QVQLQESGGGSVQVGGSLRLSCAVSGKLYGGAWFRQAQGKGREGVAAIWIGTGTTFYADSVKGRFTISRDNAKNTVYLQMDGLKPEDTALYYCAADDRPGYRDPLAPVSYNHWGQGTQVTVSS
B9: DR303 (mIL12Rb2_VHH1) (VHH)
VHH: QVQLQESGGGSVQAGGSLRLSCAASGYTYSNRHMGWFRQAPGKEREGVAAIYTGGGSTYYADSVKDRFTISQDNAKNTLYLQMNSLTPEDTAMYYCAADLTRWYSGGWRDPRGYKYWGQGTQVTVS
B10: DR304 (mIL12Rb2_VHH2) (VHH)
VHH: QVQLQESGGGSVQAGGSLRLSCAASGVTYGSYYMAAWFRQAPGKEREGVASIYGGSDSTYYADSVLGRFTISQDNGKNTLYLQMNSLKPDDTAMYYCAAAPPGKWFLKRLEGHNYSYWGQGTQVTVSS
B11: DR307 (mIL12Rb2_VHH5) (VHH)
VHH: QVQLQESGGGSVQAGGSLRLSCAASGITYRGVWMGWFRQAPGKEREGVATIYTGSGHTYYADSVKGRFTISQDNAKNTVYLQMNSLKPEDTAMYYCAARTVGGTFYTLAADSFNTWGQGTQVTVSS

Target: T1, mouse IL12 receptor subunit beta-1 (mIL12Rb1) (mouse)
Assay: ELISA, antigen-coated plate, anti-VHH-HRP detection (FIG. 5)

Row | binding | Binder
1 | binds | B1
2 | binds | B2
3 | binds | B3
4 | binds | B4
5 | binds | B5
6 | binds | B6
7 | binds | B7

Target: extracellular domain of mIL12Rb2 (mouse) (UniProt P97378)
Assay: ELISA, antigen-coated plate, anti-VHH-HRP detection (FIG. 6)

Row | binding | Binder
8 | binds | B8
9 | binds | B9
10 | binds | B10
11 | binds | B11
